Results: PubChem BioAssay AID2685 (National Center for Advancing Translational Sciences (NCATS), 2010)
The other results are listed elsewhere or left out. These are further read-outs of the screen, such as a control signal, another cell line or another target. No call is given for them. Most of these compounds were active or inconclusive in the main read-out, so they are no random draw. The note in brackets gives the kind of curve behind each potency; many fits are weak.

Test: qHTS Assay for Lipid Storage Modulators in Drosophila S3 Cells;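 for cell number change: cells counted by Cell Tracker Red CMTPX staining in the red channel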
Details: BODIPY lipid droplet fluorescence, 18-24 h; for cell number change: measured here: cell count max response, cells fed with added oleic acid
How it was run: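 Laser-scanning cytometry quantifies lipid droplet accumulation (500–530 nm total intensity; droplet/cell object ratio) in oleic acid-fed (400 uM added) Drosophila S3 cells treated with a concentration series. 20 uM Triacsin C defined 100% inhibition.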

[1] = measured here: lipid fluorescence (Fed channel) AC50, cells fed with added oleic acid
[2] = measured here: cell number channel AC50, cells fed with added oleic acid

Row | SMILES | cell number change | AC50 [1] | AC50 [2]
1 | O=C(C1CCCN(Cc2cccc(Cl)c2)C1)N1CCCCC1 (stereo unspecified) | 8.66% | 10.3 µM [rising, partial curve, poor fit] | –
2 | O=c1cnnc(N/N=C/c2cccs2)[nH]1 | 53% | – | 29.1 µM [rising, single point]
3 | CC1=C(C(=O)Nc2ccccc2)C(c2ccco2)C(C#N)=C(SCC(N)=O)N1 (stereo unspecified) | 105% | 1.3 µM [rising, full curve] | 0.651 µM [rising, single point]
4 | CCOC(=O)c1c(S(=O)(=O)N2CCC(C)CC2)c(C)n(C)c1C | – | 0.58 µM [falling, single point] | –
5 | O=C(OCC(=O)N1CCN(C(=O)c2ccco2)CC1)c1cccc(S(=O)(=O)N2CCc3ccccc32)c1 | -37.6% | 0.259 µM [falling, full curve] | –
6 | CN1CC(=O)N/C1=N\C(=O)Nc1ccc(O)cc1 | 24.8% | 23.1 µM [rising, single point] | 4.11 µM [rising, full curve, poor fit]
7 | COc1ccc(CC(=O)Nc2ccc(S(=O)(=O)Nc3onc(C)c3C)cc2)cc1OC | -9.52% | – | –
8 | CCN(CC)CCC(c1cc(OC)c(OC)c(OC)c1)c1c(OC)cc(OC)c2c(-c3ccccc3)cc(=O)oc12 (stereo unspecified) | 2.05% | 2.06 µM [rising, full curve, poor fit] | –
9 | Cc1cc(NC(=O)C(C)SCC(=O)Nc2cc(Cl)ccc2N2CCN(C)CC2)no1 (stereo unspecified) | – | 0.00517 µM [falling, full curve, poor fit] | –
10 | CCc1nnc(NC(=O)CSc2nc(-c3ccccc3)nc3ccccc23)s1 | 13.5% | 29.1 µM [rising, partial curve, poor fit] | –
11 | Cc1cc(C)n(CC(=O)N2c3ccccc3Sc3ccc(C(F)(F)F)cc32)n1 | 39.3% | 3.26 µM [rising, single point] | 9.2 µM [rising, partial curve]
12 | Cn1c(=O)[nH]c(=O)c2c1nc(Br)n2CCCCSc1nc2ccccc2o1 | 9.37% | 0.731 µM [rising, single point] | –
13 | N#CC1(NC(=O)COC(=O)/C=C/c2ccc3ccccc3n2)CCCCC1 | 8.11% | 0.0058 µM [rising, full curve, poor fit] | –
14 | CCn1c(SCC(=O)c2cccs2)nnc1-c1ccco1 | 0.343% | 0.116 µM [falling, full curve, poor fit] | –
15 | Cc1ccccc1CSc1nnc(NC(=O)C2COc3ccccc3O2)s1 (stereo unspecified) | 1.53% | 0.103 µM [falling, partial curve, poor fit] | –
16 | COCCNc1ccc(S(=O)(=O)N2CCCC2)cc1[N+](=O)[O-] | – | – | 1.3 µM [falling, single point]
17 | Cc1ccc2c(c1)C1CN(C)CCC1N2C(=S)NC(=O)c1ccc(Cl)cc1Cl (stereo unspecified) | 14.4% | 8.2 µM [rising, partial curve, poor fit] | –
18 | CSc1cccc(NC(=O)CNC(=O)c2ccc3c(c2)OCO3)c1 | – | 0.651 µM [rising, partial curve] | 2.59 µM [rising, partial curve]

Row | SMILES | cell number change | AC50 [1] | AC50 [2]
19 | COc1ccc(Cl)cc1NC(=O)C(C)N1CCc2ccccc21 (stereo unspecified) | 4.96% | – | 0.092 µM [falling, full curve, poor fit]
20 | CC1(C)CC2CC(C)(CN2C(=O)COC(=O)c2ccc(Cl)cc2N)C1 (stereo unspecified) | 28.1% | – | 3.66 µM [rising, full curve, poor fit]
21 | Cc1cc(NC(=O)c2cncc(Br)c2)no1 | 21% | 6.51 µM [falling, single point] | –
22 | COCC(C)NC(=O)CSc1nc2cc(S(=O)(=O)N3CCCCC3)ccc2o1 (stereo unspecified) | -1.9% | 6.51 µM [rising, single point] | –
23 | O=C(Nc1cccc(S(=O)(=O)N2CCCC2)c1)c1ccncc1 | -21.8% | 16.4 µM [falling, partial curve] | –
24 | O=C(NCc1cccnc1)c1cc([N+](=O)[O-])ccc1N1CCOCC1 | 12.1% | 0.00461 µM [falling, full curve, poor fit] | –
25 | Cc1c(Cl)cccc1Nc1ncccc1C(=O)OCC(O)CO (stereo unspecified) | 9.76% | 1.03 µM [rising, partial curve] | –
26 | Cc1cc(C)cc(-n2c(C)cc(/C=N/NC(=O)c3cccc([N+](=O)[O-])c3C)c2C)c1 | – | – | 0.116 µM [rising, single point]
27 | COc1ccc(OC(=O)CCN2C(=O)C3C4C=CC(C4)C3C2=O)cc1 (stereo unspecified) | -36.5% | – | 13 µM [falling, single point]
28 | Cc1cnc(C(=O)Nc2cccc3ncccc23)cn1 | 43.8% | 0.116 µM [falling, single point] | 9.2 µM [rising, partial curve]
29 | CCC(C)NC(=O)c1ccc(NC(=O)CC2SC(N3CCCC3)=NC2=O)cc1 (stereo unspecified) | 42.9% | 5.8 µM [rising, partial curve, poor fit] | 0.231 µM [rising, full curve, poor fit]
30 | O=C(CSc1nccn1-c1ccc(F)cc1)NCc1ccc(F)cc1 | 29.5% | 0.082 µM [rising, full curve, poor fit] | –
31 | CCCCn1c(NC(=O)c2ccccc2Cl)c(C#N)c2nc3ccccc3nc21 | -19.9% | 20.6 µM [falling, partial curve] | –
32 | O=C(NCc1ccc(Cl)cc1)c1cc2ccccc2oc1=O | -44.7% | – | 13 µM [falling, partial curve, poor fit]
33 | COc1cccc(N=Nc2c(C)[nH]n(-c3ccccc3)c2=O)c1 | -41.9% | 1.46 µM [falling, partial curve] | 16.4 µM [falling, partial curve]
34 | COCCN(C(=O)COC(=O)c1nc(Cl)ccc1Cl)c1c(N)n(Cc2ccccc2)c(=O)[nH]c1=O | 75% | – | 9.2 µM [rising, partial curve]
35 | O=C(COc1ccc([N+](=O)[O-])cc1)Nc1ccc2c(c1)nc1n2CCOC1 | 10.7% | – | 4.11 µM [rising, partial curve, poor fit]

Arranged by count of non-hydrogen atoms (low to high): part of the list above
Row | SMILES | cell number change | AC50 [1] | AC50 [2]
4 | CCOC(=O)c1c(S(=O)(=O)N2CCC(C)CC2)c(C)n(C)c1C | – | 0.58 µM [falling, single point] | –
22 | COCC(C)NC(=O)CSc1nc2cc(S(=O)(=O)N3CCCCC3)ccc2o1 (stereo unspecified) | -1.9% | 6.51 µM [rising, single point] | –
26 | Cc1cc(C)cc(-n2c(C)cc(/C=N/NC(=O)c3cccc([N+](=O)[O-])c3C)c2C)c1 | – | – | 0.116 µM [rising, single point]
